Laboratory results: patent US6335013B1, “Methods and materials relating to CD39-like polypeptides” (Hyseq, Inc., priority 1999, dated 2002)
These are yes or no findings as the source states them, for the method shown. Some binding calls cover weakened binding; strength is not graded here. Tags and fused reporters may be left off the sequences shown.

Protein sequences, listed by entry. Tags and fused reporters are not part of them. Lines headed by an entry give the natural chain unless they say otherwise; changes in a name come on top.
UniProt O75356: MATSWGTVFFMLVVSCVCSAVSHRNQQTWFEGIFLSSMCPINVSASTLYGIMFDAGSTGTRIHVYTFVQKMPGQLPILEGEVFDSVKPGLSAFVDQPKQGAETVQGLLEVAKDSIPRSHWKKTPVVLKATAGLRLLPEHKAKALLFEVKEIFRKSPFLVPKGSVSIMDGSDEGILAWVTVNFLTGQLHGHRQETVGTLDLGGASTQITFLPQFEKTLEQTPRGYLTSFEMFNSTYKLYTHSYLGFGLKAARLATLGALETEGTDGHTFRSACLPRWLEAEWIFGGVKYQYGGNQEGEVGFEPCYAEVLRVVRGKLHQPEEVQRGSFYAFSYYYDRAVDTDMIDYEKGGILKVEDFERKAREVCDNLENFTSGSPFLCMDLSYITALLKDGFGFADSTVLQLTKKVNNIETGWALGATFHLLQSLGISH

What was measured:
[1] = target: CD39-L4-6His (human) (UniProt O75356); test: recap of Example 6D; self-association
[2] = target: CD39-L4-6His (human) (UniProt O75356); test: non-reducing SDS-PAGE, Western blot; self-association
[3] = target: CD39-L4-6His (human) (UniProt O75356); test: nonreducing versus reducing SDS-PAGE, Western blot; self-association
[4] = target: CD39-L4-6His (human) (UniProt O75356); test: non-reducing SDS-PAGE, Western blot; self-association; band lost on reduction
[5] = target: CD39-L4-6His (human) (UniProt O75356); test: sucrose density gradient ultracentrifugation and Western blot; self-association

Measured: binding

B1: CD39-L4-6His (protein)
chain: HRGSHHHHHHNQQTWFEGIFLSSMCPINVSASTLYGIMFDAGSTGTRIHVYTFVQKMPGQLPILEGEVFDSVKPGLSAFVDQPKQGAETVQGLLEVAKDSIPRSHWKKTPVVLKATAGLRLLPEHKAKALLFEVKEIFRKSPFLVPKGSVSIMDGSDEGILAWVTVNFLTGQLHGHRQETVGTLDLGGASTQITFLPQFEKTLEQTPRGYLTSFEMFNSTYKLYTHSYLGFGLKAARLATLGALETEGTDGHTFRSACLPRWLEAEWIFGGVKYQYGGNQEGEVGFEPCYAEVLRVVRGKLHQPEEVQRGSFYAFSYYYDRAVDTDMIDYEKGGILKVEDFERKAREVCDNLENFTSGSPFLCMDLSYITALLKDGFGFADSTVLQLTKKVNNIETGWALGATFHLLQSLGISH
binds: all assays above
